Source: PubChem BioAssay AID686938 (Drosophila RNAi Screening Center, 2013)
The deposit covers about 23,000 reagents; below is a random part of those with a known target gene and a result. Over the whole deposit, 75 (0.33%) got an active call. 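Raw plate signals without normalisation; calls rest on plate z-scores that were not deposited; ratio present for only 364 wells.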 Names joined by + are all predicted targets of the reagent. Not given: the dose of the treatment.

Aim: 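Fly genes required for calcium entry once internal stores are emptied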 (primary screen)
Cells: Drosophila S2R+ cells
Knock-down reagent: long dsRNA against Drosophila genes, about 0.25 µg dsRNA per well, roughly 10,000 cells
Time to read-out: 5 days of knock-down before the calcium assay
Challenge: thapsigargin (SERCA pump blocker) to empty calcium stores; entry signal taken 4 min after adding it
Read-out: 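Duplicate raw fluo-4 intensities per well from a plate reader, at rest and four minutes after thapsigargin emptied calcium stores; entry-to-rest ratio filled for only some wells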
Reading the numbers: calcium entry signal: higher = stronger calcium signal after store depletion; entry to resting ratio: higher = more calcium entry relative to resting level; resting calcium signal: higher = higher resting calcium signal
Active means: 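Hit if the duplicate-averaged plate z-score for entry over resting signal is under −3; wells with weak total dye signal (Fmax z < −2) or more than 5 off-targets removed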
Calls: active = strongly reduced calcium entry; inactive = no strong reduction

Target gene | dsRNA | calcium entry signal, replicate 1 (fluorescence units) | calcium entry signal, replicate 2 (fluorescence units) | entry to resting ratio | resting calcium signal, replicate 1 (fluorescence units) | resting calcium signal, replicate 2 (fluorescence units) | activity call
TAF1B | DRSC16001 | 4.19e7 | 5.15e7 | – | 1.84e7 | 2.26e7 | inactive
CG10077 | DRSC09691 | 5.22e7 | 3.28e7 | – | 3.13e7 | 1.43e7 | inactive
eIF3f1 | DRSC12328 | 1.59e7 | 2.41e7 | – | 1.12e7 | 1.58e7 | inactive
CG13324 | DRSC06361 | 2.17e7 | 3.04e7 | – | 1.07e7 | 1.34e7 | inactive
Nrx-1 | DRSC16184 | 4.83e7 | 2.87e7 | – | 2.45e7 | 1.50e7 | inactive
CG3776 | DRSC04417 | 2.67e7 | – | – | 1.29e7 | – | inactive
CG32834 | DRSC21929 | 3.24e7 | 3.52e7 | – | 1.60e7 | 2.03e7 | inactive
Sec22 + CG13358 | DRSC18538 | 5.17e7 | 3.56e7 | – | 2.29e7 | 1.93e7 | inactive
Ccs | DRSC06692 | 2.80e7 | 3.75e7 | – | 1.43e7 | 1.72e7 | inactive
Arts + Apl | DRSC10349 | 3.49e7 | 5.25e7 | – | 1.68e7 | 1.97e7 | inactive
ast | DRSC00803 | 4.29e7 | – | – | 2.25e7 | – | inactive
Gcn5 | DRSC11248 | 3.55e7 | 2.93e7 | – | 2.90e7 | 1.51e7 | inactive
Or67b | DRSC11241 | 2.99e7 | 3.92e7 | – | 1.50e7 | 1.78e7 | inactive
CG6912 | DRSC16132 | 3.59e7 | 4.82e7 | – | 1.61e7 | 7.37e7 | inactive
TTLL6B | DRSC15932 | 3.66e7 | 6.25e7 | – | 1.93e7 | 2.56e7 | inactive
brm | DRSC11330 | 5.89e7 | 5.67e7 | – | 3.58e7 | 3.25e7 | active
Irc | DRSC16454 | 3.47e7 | 2.79e7 | – | 1.68e7 | 1.30e7 | inactive
sunz | DRSC12559 | 4.77e7 | 3.34e7 | – | 2.28e7 | 1.60e7 | inactive
CG33557 | DRSC17854 | 3.82e7 | 5.23e7 | – | 1.92e7 | 2.43e7 | inactive
Spn53F | DRSC06022 | 4.93e7 | 4.27e7 | – | 2.09e7 | 2.03e7 | inactive
CG42335 | DRSC14597 | 3.49e7 | 4.83e7 | – | 5.71e7 | 1.99e7 | inactive
CG42335 | DRSC15892 | 3.96e7 | 4.43e7 | – | 4.85e7 | 1.95e7 | inactive
Ddrgk1 | DRSC15897 | 4.83e7 | 4.07e7 | – | 2.27e7 | 1.71e7 | inactive
CG6650 | DRSC10685 | 2.05e7 | 3.11e7 | – | 1.04e7 | 2.03e7 | inactive
CG32454 | DRSC11652 | 2.97e7 | 4.12e7 | – | 1.51e7 | 2.98e7 | inactive
lectin-37Da | DRSC03278 | 4.07e7 | 4.36e7 | – | 2.05e7 | 2.25e7 | inactive
lectin-37Da | DRSC22729 | 4.04e7 | 3.72e7 | – | 2.16e7 | 1.52e7 | inactive
Tsen34 | DRSC22932 | 2.45e7 | 2.83e7 | – | 1.31e7 | 1.26e7 | inactive
Drat | DRSC06600 | 3.11e7 | 2.06e7 | – | 1.25e7 | 1.06e7 | inactive
Mp20 | DRSC07474 | 2.63e7 | 4.56e7 | – | 1.45e7 | 1.94e7 | inactive
CG10738 | DRSC09792 | 3.05e7 | 3.37e7 | – | 1.65e7 | 1.69e7 | inactive
cad | DRSC03502 | 1.98e7 | – | – | 1.20e7 | – | inactive
cad | DRSC23193 | 3.85e7 | 4.37e7 | – | 1.95e7 | 1.86e7 | inactive
CG12498 | DRSC18635 | 3.28e7 | 5.19e7 | 1.9 | 1.77e7 | 2.04e7 | inactive
TwdlW | DRSC15540 | 3.16e7 | 5.59e7 | – | 1.54e7 | 7.07e7 | inactive
CG14109 | DRSC10112 | 3.02e7 | 3.79e7 | – | 1.59e7 | 1.84e7 | inactive

The list goes on (5 carried over from the part before).
Target gene | dsRNA | calcium entry signal, replicate 1 (fluorescence units) | calcium entry signal, replicate 2 (fluorescence units) | entry to resting ratio | resting calcium signal, replicate 1 (fluorescence units) | resting calcium signal, replicate 2 (fluorescence units) | activity call
cad | DRSC03502 | 1.98e7 | – | – | 1.20e7 | – | inactive
cad | DRSC23193 | 3.85e7 | 4.37e7 | – | 1.95e7 | 1.86e7 | inactive
CG12498 | DRSC18635 | 3.28e7 | 5.19e7 | 1.9 | 1.77e7 | 2.04e7 | inactive
TwdlW | DRSC15540 | 3.16e7 | 5.59e7 | – | 1.54e7 | 7.07e7 | inactive
CG14109 | DRSC10112 | 3.02e7 | 3.79e7 | – | 1.59e7 | 1.84e7 | inactive
CG11566 (retired record) + stg1 | DRSC20473 | 3.23e7 | 4.26e7 | – | 2.04e7 | 2.04e7 | inactive
CG11566 (retired record) + stg1 | DRSC20481 | 3.69e7 | 4.95e7 | – | 2.14e7 | 2.33e7 | inactive
CG11566 (retired record) + stg1 | DRSC20482 | 3.40e7 | 4.51e7 | – | 1.99e7 | 1.91e7 | inactive
CG11566 (retired record) + stg1 | DRSC20483 | 3.70e7 | 4.46e7 | – | 2.23e7 | 2.08e7 | inactive
CG5835 | DRSC15886 | 3.59e7 | 3.77e7 | – | 4.96e7 | 1.70e7 | inactive
CG15199 | DRSC19646 | 3.76e7 | 4.96e7 | – | 1.91e7 | 2.41e7 | inactive
CG9184 | DRSC08636 | 3.82e7 | 5.37e7 | – | 1.86e7 | 2.26e7 | inactive
CG9184 | DRSC22184 | 3.81e7 | 4.15e7 | – | 1.72e7 | 2.44e7 | inactive
CG13984 | DRSC02316 | 3.20e7 | 3.99e7 | – | 1.57e7 | 1.85e7 | inactive
CG16903 | DRSC18561 | 3.21e7 | 3.62e7 | 1.7 | 1.89e7 | 1.84e7 | inactive
CG31125 | DRSC13684 | 5.22e7 | 3.78e7 | – | 2.16e7 | 1.98e7 | inactive
Nrd1 | DRSC19830 | 2.38e7 | 3.09e7 | – | 1.29e7 | 1.50e7 | inactive
Spn | DRSC07986 | 5.00e7 | 4.48e7 | – | 2.49e7 | 2.00e7 | inactive
Spn | DRSC08490 | 4.66e7 | 3.61e7 | – | 2.05e7 | 1.76e7 | inactive
Spn | DRSC08491 | 4.24e7 | 4.93e7 | – | 2.13e7 | 2.17e7 | inactive
mRpL10 | DRSC00312 | 4.87e7 | – | – | 1.74e7 | – | inactive
scyl | DRSC11392 | 2.67e7 | 4.45e7 | – | 1.51e7 | 2.01e7 | inactive
Glut4EF | DRSC14347 | 3.89e7 | 4.10e7 | – | 2.30e7 | 2.22e7 | inactive
Glut4EF | DRSC14512 | 4.22e7 | 3.93e7 | – | 2.09e7 | 1.92e7 | inactive
Glut4EF | DRSC14541 | 4.40e7 | 3.85e7 | – | 2.06e7 | 1.87e7 | inactive
Glut4EF | DRSC14542 | 4.12e7 | 3.59e7 | – | 2.15e7 | 1.87e7 | inactive
Glut4EF | DRSC14543 | 3.87e7 | 3.65e7 | – | 1.93e7 | 1.80e7 | inactive
Glut4EF | DRSC23038 | 3.17e7 | 3.93e7 | – | 1.67e7 | 1.77e7 | inactive
